According to patent publication US20100138945A1 (FEMTA PHARMACEUTICALS, published 2010):
No constants are given. Whether binding was seen depends on the method and setting. A result given as binding can be weak or reduced; the word gives no strength.

Experiments:
[1] = biological target: monkey IL-6 (monkey); test: competition ELISA on captured monkey IL-6; competitor of biotinylated 001
[2] = biological target: monkey IL-6 (monkey); test: competition ELISA on captured monkey IL-6: unlabelled antibody added with biotinylated 001 (BA001), streptavidin-HRP

Row | binding [1] | binding [2] | Binder
1 | binds | binds | Anti-IL-6 Ab BA399 (antibody, V domains shown) VH: QVQLVQSGAEVKKPGASVKVSCKASGFTFSSFAMSWIRQSPSRGLEWLGEISSGGSYTYYPDTVTGRFTISRDNAKNSLYLQMNSLRAEDTAVYYCARGLWGYYALDYWGQG VL: AIQLTQSPSSLSASVGDRVTITCSASSSVSYMYWYQQKPGQAPRLLIYDTSNLASGIPPRFSGSGYGTDFTLTINNIESEDAAYYFCQQWSGYPYTFGQG
2 | binds | binds | Clone BA399-02 (antibody, V domains shown, also called BA399-2; BA399 clone #2) VH: QVQLVQSGAEVKKPGASVKVSCKASGFTFSSFSMSWIRQSPSRGLEWLGEISSGGSYTYYPDTKTGRFTISRDNAKNSLYLQMNSLRAEDTAVYYCARGQWGYYALDYWGQG VL: AIQLTQSPSSLSASVGDRVTITCYASSSVSYMYWYQQKPGQAPRLLIYDTSNLASGIPPRFSGSGYGTDFTLTINNIESEDAAYYFCQQWSGYPYTFGQG
3 | binds | binds | Clone BA399-09 (antibody, V domains shown, also called BA399-9; BA399 clone #9) VH: QVQLVQSGAEVKKPGASVKVSCKASGFTFSSFSMSWIRQSPSRGLEWLGEISSGGSYHYYPDTVTGRFTISRDNAKNSLYLQMNSLRAEDTAVYYCARGQWGYYALDYWGQG VL: AIQLTQSPSSLSASVGDRVTITCYASSSVSYMYWYQQKPGQAPRLLIYDTLNLASGIPPRFSGSGYGTDFTLTINNIESEDAAYYFCQQWSGYPYTFGQG
